{
  "source": "paper PMC7926352",
  "about": "“Synthesis, Characterization and In Vitro Evaluation of Novel 5-Ene-thiazolo[3,2-b][1,2,4]triazole-6(5H)-ones as Possible Anticancer Agents” (Molecules, 2021)",
  "key": {"HT29": {"tested_on": "HT29", "conditions": "HT29, Colon cancer"}, "HCT-116": {"tested_on": "HCT-116", "conditions": "HCT-116, Colon cancer"}, "A498": {"tested_on": "A498", "conditions": "A498, Renal Cancer"}, "LOX IMVI": {"tested_on": "LOX IMVI", "conditions": "Melanoma"}, "COLO 205": {"tested_on": "COLO 205", "format": "cell-based", "conditions": "COLO 205, Colon cancer"}, "UO-31": {"tested_on": "UO-31", "conditions": "UO-31, Renal Cancer"}, "Leukemia cell lines": {"tested_on": "Leukemia cell lines", "conditions": "Leukemia subpanel"}, "[1]": {"tested_on": "NSCLC (Non-small Cell Lung Cancer) cell lines", "conditions": "NSCLC subpanel"}, "SNB-75": {"tested_on": "SNB-75", "conditions": "SNB-75, CNS Cancer"}, "SK-OV-3": {"tested_on": "SK-OV-3", "conditions": "SK-OV-3, Ovarian Cancer"}, "U251": {"tested_on": "U251", "conditions": "U251, CNS Cancer"}, "HCT-15": {"tested_on": "HCT-15", "conditions": "HCT-15, Colon cancer"}, "M14": {"tested_on": "M14", "conditions": "M14, Melanoma"}, "CAKI-1": {"tested_on": "CAKI-1", "conditions": "CAKI-1, Renal Cancer"}, "SK-MEL-2": {"tested_on": "SK-MEL-2", "conditions": "SK-MEL-2, Melanoma"}, "KM12": {"tested_on": "KM12", "conditions": "KM12, Colon cancer"}, "OVCAR-5": {"tested_on": "OVCAR-5", "conditions": "OVCAR-5, Ovarian Cancer"}, "UACC-62": {"tested_on": "UACC-62", "conditions": "UACC-62, Melanoma"}, "CCRF-CEM": {"tested_on": "CCRF-CEM", "conditions": "Leukemia"}, "ACHN": {"tested_on": "ACHN", "conditions": "Renal Cancer"}, "UACC-257": {"tested_on": "UACC-257", "conditions": "UACC-257, Melanoma"}, "HOP-92": {"tested_on": "HOP-92", "conditions": "HOP-92, NSCLC"}, "HCC-2998": {"tested_on": "HCC-2998", "conditions": "HCC-2998, Colon cancer"}, "OVCAR-3": {"tested_on": "OVCAR-3", "conditions": "OVCAR-3, Ovarian Cancer"}, "A549/ATCC": {"tested_on": "A549/ATCC", "format": "cell-based", "conditions": "NSCLC"}, "TK-10": {"tested_on": "TK-10", "conditions": "TK-10, Renal Cancer"}, "RPMI-8226": {"tested_on": "RPMI-8226", "conditions": "RPMI-8226, Leukemia"}, "MCF7": {"tested_on": "MCF7", "conditions": "MCF7, Breast Cancer"}, "Breast Cancer cell lines": {"tested_on": "Breast Cancer cell lines", "conditions": "Breast Cancer subpanel"}, "Renal Cancer cell lines": {"tested_on": "Renal Cancer cell lines", "conditions": "Renal Cancer subpanel"}},
  "data": [
    {"smiles": "O=C(COc1ccc(Cl)cc1/C=c1\\sc2ncnn2c1=O)Nc1ccc(Cl)cc1", "note": "[Compound 2h, (Z)-2-(4-Chloro-2-((6-oxothiazolo[3,2-b][1,2,4]triazol-5(6H)-ylidene)methyl)phenoxy)-N-(4-chlorophenyl)acetamide]", "values": [
      {"measurement": "SI (GI50)", "setting": "HT29", "value": 0.76},
      {"measurement": "SI (LC50)", "setting": "HT29", "value": 0.95},
      {"measurement": "SI (TGI)", "setting": "HT29", "value": 0.85},
      {"measurement": "SI (GI50)", "setting": "HCT-116", "value": 0.47},
      {"measurement": "SI (LC50)", "setting": "HCT-116", "value": 0.81},
      {"measurement": "SI (TGI)", "setting": "HCT-116", "value": 0.62},
      {"measurement": "SI (GI50)", "setting": "A498", "value": 0.34},
      {"measurement": "SI (LC50)", "setting": "A498", "value": 0.79},
      {"measurement": "SI (GI50)", "setting": "LOX IMVI", "value": 1.35},
      {"measurement": "SI (LC50)", "setting": "LOX IMVI", "value": 1.12},
      {"measurement": "SI (TGI)", "setting": "LOX IMVI", "value": 1.15},
      {"measurement": "SI (GI50)", "setting": "COLO 205", "value": 0.47},
      {"measurement": "SI (LC50)", "setting": "COLO 205", "value": 0.83},
      {"measurement": "SI (TGI)", "setting": "COLO 205", "value": 0.65},
      {"measurement": "SI (GI50)", "setting": "UO-31", "value": 1.55},
      {"measurement": "SI (LC50)", "setting": "UO-31", "value": 0.83},
      {"measurement": "SI (TGI)", "setting": "UO-31", "value": 0.74},
      {"measurement": "SI (GI50)", "setting": "Leukemia cell lines", "value": 1.84},
      {"measurement": "SI (LC50)", "setting": "Leukemia cell lines", "value": 1.39},
      {"measurement": "SI (TGI)", "setting": "Leukemia cell lines", "value": 1.88},
      {"measurement": "SI (GI50)", "setting": "[1]", "value": 0.51},
      {"measurement": "SI (LC50)", "setting": "[1]", "value": 0.84},
      {"measurement": "SI (TGI)", "setting": "[1]", "value": 0.71},
      {"measurement": "SI (GI50)", "setting": "SNB-75", "value": 1.04},
      {"measurement": "SI (LC50)", "setting": "SNB-75", "value": 0.43},
      {"measurement": "SI (TGI)", "setting": "SNB-75", "value": 0.83},
      {"measurement": "SI (GI50)", "setting": "SK-OV-3", "value": 0.29},
      {"measurement": "SI (LC50)", "setting": "SK-OV-3", "value": 0.69},
      {"measurement": "SI (TGI)", "setting": "SK-OV-3", "value": 0.45},
      {"measurement": "SI (GI50)", "setting": "U251", "value": 0.87},
      {"measurement": "SI (LC50)", "setting": "U251", "value": 0.97},
      {"measurement": "SI (TGI)", "setting": "U251", "value": 0.89},
      {"measurement": "SI (GI50)", "setting": "HCT-15", "value": 0.38},
      {"measurement": "SI (LC50)", "setting": "HCT-15", "value": 0.81},
      {"measurement": "SI (TGI)", "setting": "HCT-15", "value": 0.60},
      {"measurement": "SI (GI50)", "setting": "M14", "value": 0.43},
      {"measurement": "SI (LC50)", "setting": "M14", "value": 0.81},
      {"measurement": "SI (TGI)", "setting": "M14", "value": 0.62},
      {"measurement": "SI (GI50)", "setting": "CAKI-1", "value": 1.48},
      {"measurement": "SI (LC50)", "setting": "CAKI-1", "value": 1.28},
      {"measurement": "SI (TGI)", "setting": "CAKI-1", "value": 1.58},
      {"measurement": "SI (GI50)", "setting": "SK-MEL-2", "value": 0.89},
      {"measurement": "SI (LC50)", "setting": "SK-MEL-2", "value": 0.95},
      {"measurement": "SI (TGI)", "setting": "SK-MEL-2", "value": 0.93},
      {"measurement": "SI (GI50)", "setting": "KM12", "value": 1.44},
      {"measurement": "SI (LC50)", "setting": "KM12", "value": 1.12},
      {"measurement": "SI (TGI)", "setting": "KM12", "value": 1.18},
      {"measurement": "SI (GI50)", "setting": "OVCAR-5", "value": 0.32},
      {"measurement": "SI (LC50)", "setting": "OVCAR-5", "value": 0.77},
      {"measurement": "SI (TGI)", "setting": "OVCAR-5", "value": 0.55},
      {"measurement": "SI (GI50)", "setting": "UACC-62", "value": 1.32},
      {"measurement": "SI (LC50)", "setting": "UACC-62", "value": 0.97},
      {"measurement": "SI (TGI)", "setting": "UACC-62", "value": 0.87},
      {"measurement": "SI (GI50)", "setting": "CCRF-CEM", "value": 2.62},
      {"measurement": "SI (LC50)", "setting": "CCRF-CEM", "value": 4.90},
      {"measurement": "SI (TGI)", "setting": "CCRF-CEM", "value": 4.08},
      {"measurement": "SI (GI50)", "setting": "ACHN", "value": 0.28},
      {"measurement": "SI (LC50)", "setting": "ACHN", "value": 0.74},
      {"measurement": "SI (TGI)", "setting": "ACHN", "value": 0.51},
      {"measurement": "SI (GI50)", "setting": "UACC-257", "value": 1.05},
      {"measurement": "SI (LC50)", "setting": "UACC-257", "value": 0.95},
      {"measurement": "SI (TGI)", "setting": "UACC-257", "value": 0.85},
      {"measurement": "SI (GI50)", "setting": "HOP-92", "value": 1.55},
      {"measurement": "SI (LC50)", "setting": "HOP-92", "value": 1.07},
      {"measurement": "SI (TGI)", "setting": "HOP-92", "value": 1.09},
      {"measurement": "SI (GI50)", "setting": "HCC-2998", "value": 0.50},
      {"measurement": "SI (LC50)", "setting": "HCC-2998", "value": 0.85},
      {"measurement": "SI (TGI)", "setting": "HCC-2998", "value": 0.69},
      {"measurement": "SI (GI50)", "setting": "OVCAR-3", "value": 1.62},
      {"measurement": "SI (LC50)", "setting": "OVCAR-3", "value": 1.90},
      {"measurement": "SI (TGI)", "setting": "OVCAR-3", "value": 2.29},
      {"measurement": "SI (GI50)", "setting": "A549/ATCC", "value": 0.23},
      {"measurement": "SI (LC50)", "setting": "A549/ATCC", "value": 0.62},
      {"measurement": "SI (TGI)", "setting": "A549/ATCC", "value": 0.42},
      {"measurement": "SI (GI50)", "setting": "TK-10", "value": 0.47},
      {"measurement": "SI (LC50)", "setting": "TK-10", "value": 1.05},
      {"measurement": "SI (TGI)", "setting": "TK-10", "value": 0.63},
      {"measurement": "SI (GI50)", "setting": "RPMI-8226", "value": 2.09},
      {"measurement": "SI (LC50)", "setting": "RPMI-8226", "value": 1.38},
      {"measurement": "SI (TGI)", "setting": "RPMI-8226", "value": 2.63},
      {"measurement": "SI (GI50)", "setting": "MCF7", "value": 4.48},
      {"measurement": "SI (LC50)", "setting": "MCF7", "value": 1.90},
      {"measurement": "SI (TGI)", "setting": "MCF7; listed as 4h", "value": 3.16},
      {"measurement": "SI (GI50)", "setting": "Breast Cancer cell lines", "value": 0.79},
      {"measurement": "SI (LC50)", "setting": "Breast Cancer cell lines", "value": 0.80},
      {"measurement": "SI (TGI)", "setting": "Breast Cancer cell lines", "value": 0.82},
      {"measurement": "SI (GI50)", "setting": "Renal Cancer cell lines", "value": 0.66},
      {"measurement": "SI (LC50)", "setting": "Renal Cancer cell lines", "value": 0.92},
      {"measurement": "SI (TGI)", "setting": "Renal Cancer cell lines", "value": 0.78}
    ]}
  ]
}
